Experimental data: article PMC12232897, “Harnessing Negative Photochromism in Styryl Cyanines for Light‐Modulated Proton Transport” (Angewandte Chemie (International Ed. in English), 2025)
Marks after values point to notes of the source that are not given here.

Experiment: Photoisomerization quantum yield (total absorbance method)
Assay type: physicochemical
Conditions: for QY [open →closed] in ACN: 365 nm

Compound | QY [open →closed] in ACN [%] | QY [open →closed] (Milliq Water used as solvent) [% ^‡]
COc1ccc(O)c(/C=C/C2=Nc3ccccc3C2(C)C)c1 [1c] | 30 | 
CC1(C)C(/C=C/c2ccccc2O)=Nc2ccc(F)cc21 [1d] | 35 | 
CC1(C)C(/C=C/c2ccccc2O)=Nc2ccccc21 [1a] | 46 | 
CC1(C)C(/C=C/c2ccccc2O)=Nc2ccc(S(=O)(=O)[O-])cc21.[K+] [1f] |  | 33
COc1ccc2c(c1)C(C)(C)C(/C=C/c1ccccc1O)=N2 [1b] | 28 | 
CC1(C)C(/C=C/c2cc(F)ccc2O)=Nc2ccccc21 [1e] | 23 | 
